Tested on: double-stranded nucleic acids
Experiment: KC value (Kp × dye concentration × 2)
Assay type: binding
Conditions: KC = Kp × dye concentration × 2

Row | Molecule | "KC" Value
1 | C[n+]1c(C=C2C=CN(CCC[N+](C)(C)C)C=C2)sc2ccccc21 [Compound C] | 3.2
2 | C[n+]1c(C=C2C=CN(CCC[N+](C)(C)C)c3ccccc32)oc2ccccc21 [Compound E] | 8.2
3 | C[n+]1c(C=C2C=CN(CCC[N+](C)(C)C)c3ccccc32)sc2ccccc21 [Compound G] | 20
4 | C[n+]1c(C=CC=C2C=CN(CCC[N+](C)(C)C)c3ccccc32)sc2ccccc21 [Compound H] | 6.2
5 | CN1/C(=C/c2cc[n+](CCC[N+](C)(C)CCC[N+](C)(C)CCC[n+]3ccc(/C=C4\Sc5ccccc5N4C)c4ccccc43)c3ccccc23)Sc2ccccc21.[I-].[I-].[I-].[I-] [TOTO-1, reference compound] | 110
6 | C[n+]1c(C=C2C=CN(CCC[N+](C)(C)CCC[N+](C)(C)CCCN3C=CC(=Cc4oc5ccccc5[n+]4C)c4ccccc43)c3ccccc32)oc2ccccc21 [YOYO-1] | 60
7 | TOTO-3 [reference compound] | 25

From patent US5563037A, “Homogeneous method for assay of double-stranded nucleic acids using fluorescent dyes and kit useful therein” (Johnson & Johnson Clinical Diagnostics, Inc., priority 1995, dated 1996)
